Data as given in article PMC11494501 (ACS Chemical Biology, 2024).
*: point of attachment. FITC = O=C1OC2(c3ccc(O)cc3Oc3cc(O)ccc32)c2ccc(NC(=S)*)cc21; βAla = NCCC(=O)O

Assay: peptide synthesis
Conditions: whole synthesis, analytical RP-HPLC (Shimadzu, UV 214 nm and 280 nm, Phenomenex Aeris peptide XB-C18)

Substance | final HPLC purity
Ac-βA-GEDEEELIRKALELSLKESG-NH2 | 100%
Ac-βA-GEDEEELFRKAIELSLKESG-NH2 | 100%
{FITC-βAla}-GEDEEEEIRKAIELSLKESG-NH2 | 100%
{FITC-βAla}-GEDEEELIRKAAELSLKESG-NH2 (SMILES CC[C@H](C)[C@H](NC(=O)[C@H](CC(C)C)NC(=O)[C@H](CCC(=O)O)NC(=O)[C@H](CCC(=O)O)NC(=O)[C@H](CCC(=O)O)NC(=O)[C@H](CC(=O)O)NC(=O)[C@H](CCC(=O)O)NC(=O)CNC(=O)CCNC(=S)Nc1ccc2c(c1)C(=O)OC21c2ccc(O)cc2Oc2cc(O)ccc21)C(=O)N[C@@H](CCCNC(=N)N)C(=O)N[C@@H](CCCCN)C(=O)N[C@@H](C)C(=O)N[C@@H](C)C(=O)N[C@@H](CCC(=O)O)C(=O)N[C@@H](CC(C)C)C(=O)N[C@@H](CO)C(=O)N[C@@H](CC(C)C)C(=O)N[C@@H](CCCCN)C(=O)N[C@@H](CCC(=O)O)C(=O)N[C@@H](CO)C(=O)NCC(N)=O) | 93.67%
FITC-βA-GEDEEELARKAIELSLKESG-NH2 | 93.89%
FITC-βA-GEDEEELIRKAIELSAKESG-NH2 | 91.94%
Ac-βA-GEDEEELARKAIELSLKESG-NH2 | 89.50%
Ac-βA-GEDEEELIRKAIEASLKESG-NH2 | 96.79%
Ac-βA-GEDEEELIRKAIELSAKESG-NH2 | 93.72%
FITC-βA-GEDEEELIRKAIEASLKESG-NH2 | 96.33%
Ac-βA-GEDEEELIRKAIEESLKESG-NH2 | 100%
Ac-βA-GEDEEELIRKAAELSLKESG-NH2 | 96.38%
{FITC-βAla}-GEDEEELIRKAIEESLKESG-NH2 (SMILES CC[C@H](C)[C@H](NC(=O)[C@H](C)NC(=O)[C@H](CCCCN)NC(=O)[C@H](CCCNC(=N)N)NC(=O)[C@@H](NC(=O)[C@H](CC(C)C)NC(=O)[C@H](CCC(=O)O)NC(=O)[C@H](CCC(=O)O)NC(=O)[C@H](CCC(=O)O)NC(=O)[C@H](CC(=O)O)NC(=O)[C@H](CCC(=O)O)NC(=O)CNC(=O)CCNC(=S)Nc1ccc2c(c1)C(=O)OC21c2ccc(O)cc2Oc2cc(O)ccc21)[C@@H](C)CC)C(=O)N[C@@H](CCC(=O)O)C(=O)N[C@@H](CCC(=O)O)C(=O)N[C@@H](CO)C(=O)N[C@@H](CC(C)C)C(=O)N[C@@H](CCCCN)C(=O)N[C@@H](CCC(=O)O)C(=O)N[C@@H](CO)C(=O)NCC(N)=O) | 90.59%
{FITC-βAla}-GEDEEELIRKAIELSLKESG-NH2 | 100%
Ac-βA-GEDEEELIRKAIELSEKESG-NH2 | 92.23%
FITC-βA-GEDEEELFRKAIELSLKESG-NH2 | 100%
FITC-βA-GEDEEELIRKALELSLKESG-NH2 | 97.02%
Ac-βA-GEDEEEAIRKAIELSLKESG-NH2 | 98.43%
Ac-βA-GEDEEEEIRKAIELSLKESG-NH2 | 95.04%
Ac-GEDEEELIRKAIELSLKESG-NH2 | 95.68%
{FITC-βAla}-GEDEEELIRKAIELSEKESG-NH2 | 96.25%

Same assay, conditions: whole synthesis, analytical RP-HPLC (Shimadzu, UV 214 nm and 280 nm, Phenomenex Aeris peptide XB-C18), scale 0.025 mmol

Substance | final HPLC purity
Ac-GEDEEELIRKAIELSLKESGK(FITC)-NH2 | 93.99%
